Laboratory results: the supplement of paper PMC10849652
The list shows a part of the results.

Amino acid sequences for entries named in this document (tags omitted). A change or cut given only in a name is not applied to a line headed by its entry.
UniProt Q9NWR8: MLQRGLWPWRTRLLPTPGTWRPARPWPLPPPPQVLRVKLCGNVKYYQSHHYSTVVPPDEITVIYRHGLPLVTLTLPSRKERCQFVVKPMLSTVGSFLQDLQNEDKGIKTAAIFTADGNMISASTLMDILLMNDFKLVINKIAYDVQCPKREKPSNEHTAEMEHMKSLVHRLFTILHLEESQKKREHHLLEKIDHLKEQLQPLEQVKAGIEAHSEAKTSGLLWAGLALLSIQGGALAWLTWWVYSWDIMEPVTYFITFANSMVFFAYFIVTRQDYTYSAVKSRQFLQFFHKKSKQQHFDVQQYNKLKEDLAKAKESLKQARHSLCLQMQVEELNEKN
UniProt Q8NI22: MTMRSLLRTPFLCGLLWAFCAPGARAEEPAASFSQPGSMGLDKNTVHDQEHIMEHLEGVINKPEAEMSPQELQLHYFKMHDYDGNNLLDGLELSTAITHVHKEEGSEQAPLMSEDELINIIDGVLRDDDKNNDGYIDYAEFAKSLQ
UniProt Q7L590: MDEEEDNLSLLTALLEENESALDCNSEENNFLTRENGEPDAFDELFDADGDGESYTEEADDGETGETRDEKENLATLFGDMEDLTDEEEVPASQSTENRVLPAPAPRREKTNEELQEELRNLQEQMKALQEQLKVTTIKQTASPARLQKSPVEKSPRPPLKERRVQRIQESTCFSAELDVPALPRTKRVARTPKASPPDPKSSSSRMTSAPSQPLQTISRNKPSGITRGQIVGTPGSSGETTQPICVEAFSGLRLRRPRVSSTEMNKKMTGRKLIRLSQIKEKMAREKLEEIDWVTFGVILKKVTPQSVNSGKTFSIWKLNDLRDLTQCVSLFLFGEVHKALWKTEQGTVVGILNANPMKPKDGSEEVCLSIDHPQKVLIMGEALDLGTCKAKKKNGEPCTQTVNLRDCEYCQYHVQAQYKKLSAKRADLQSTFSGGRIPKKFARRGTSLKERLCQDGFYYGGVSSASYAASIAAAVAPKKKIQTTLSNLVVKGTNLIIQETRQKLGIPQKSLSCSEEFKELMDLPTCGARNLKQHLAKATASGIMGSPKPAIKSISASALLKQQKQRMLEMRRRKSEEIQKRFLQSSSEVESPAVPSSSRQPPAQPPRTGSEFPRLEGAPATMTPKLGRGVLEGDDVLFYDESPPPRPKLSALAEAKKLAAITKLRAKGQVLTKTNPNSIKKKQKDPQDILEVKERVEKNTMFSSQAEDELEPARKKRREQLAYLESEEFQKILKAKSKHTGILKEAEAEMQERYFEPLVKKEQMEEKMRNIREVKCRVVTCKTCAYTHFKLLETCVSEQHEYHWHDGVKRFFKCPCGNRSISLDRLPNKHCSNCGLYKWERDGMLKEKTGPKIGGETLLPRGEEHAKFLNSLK
UniProt O60318: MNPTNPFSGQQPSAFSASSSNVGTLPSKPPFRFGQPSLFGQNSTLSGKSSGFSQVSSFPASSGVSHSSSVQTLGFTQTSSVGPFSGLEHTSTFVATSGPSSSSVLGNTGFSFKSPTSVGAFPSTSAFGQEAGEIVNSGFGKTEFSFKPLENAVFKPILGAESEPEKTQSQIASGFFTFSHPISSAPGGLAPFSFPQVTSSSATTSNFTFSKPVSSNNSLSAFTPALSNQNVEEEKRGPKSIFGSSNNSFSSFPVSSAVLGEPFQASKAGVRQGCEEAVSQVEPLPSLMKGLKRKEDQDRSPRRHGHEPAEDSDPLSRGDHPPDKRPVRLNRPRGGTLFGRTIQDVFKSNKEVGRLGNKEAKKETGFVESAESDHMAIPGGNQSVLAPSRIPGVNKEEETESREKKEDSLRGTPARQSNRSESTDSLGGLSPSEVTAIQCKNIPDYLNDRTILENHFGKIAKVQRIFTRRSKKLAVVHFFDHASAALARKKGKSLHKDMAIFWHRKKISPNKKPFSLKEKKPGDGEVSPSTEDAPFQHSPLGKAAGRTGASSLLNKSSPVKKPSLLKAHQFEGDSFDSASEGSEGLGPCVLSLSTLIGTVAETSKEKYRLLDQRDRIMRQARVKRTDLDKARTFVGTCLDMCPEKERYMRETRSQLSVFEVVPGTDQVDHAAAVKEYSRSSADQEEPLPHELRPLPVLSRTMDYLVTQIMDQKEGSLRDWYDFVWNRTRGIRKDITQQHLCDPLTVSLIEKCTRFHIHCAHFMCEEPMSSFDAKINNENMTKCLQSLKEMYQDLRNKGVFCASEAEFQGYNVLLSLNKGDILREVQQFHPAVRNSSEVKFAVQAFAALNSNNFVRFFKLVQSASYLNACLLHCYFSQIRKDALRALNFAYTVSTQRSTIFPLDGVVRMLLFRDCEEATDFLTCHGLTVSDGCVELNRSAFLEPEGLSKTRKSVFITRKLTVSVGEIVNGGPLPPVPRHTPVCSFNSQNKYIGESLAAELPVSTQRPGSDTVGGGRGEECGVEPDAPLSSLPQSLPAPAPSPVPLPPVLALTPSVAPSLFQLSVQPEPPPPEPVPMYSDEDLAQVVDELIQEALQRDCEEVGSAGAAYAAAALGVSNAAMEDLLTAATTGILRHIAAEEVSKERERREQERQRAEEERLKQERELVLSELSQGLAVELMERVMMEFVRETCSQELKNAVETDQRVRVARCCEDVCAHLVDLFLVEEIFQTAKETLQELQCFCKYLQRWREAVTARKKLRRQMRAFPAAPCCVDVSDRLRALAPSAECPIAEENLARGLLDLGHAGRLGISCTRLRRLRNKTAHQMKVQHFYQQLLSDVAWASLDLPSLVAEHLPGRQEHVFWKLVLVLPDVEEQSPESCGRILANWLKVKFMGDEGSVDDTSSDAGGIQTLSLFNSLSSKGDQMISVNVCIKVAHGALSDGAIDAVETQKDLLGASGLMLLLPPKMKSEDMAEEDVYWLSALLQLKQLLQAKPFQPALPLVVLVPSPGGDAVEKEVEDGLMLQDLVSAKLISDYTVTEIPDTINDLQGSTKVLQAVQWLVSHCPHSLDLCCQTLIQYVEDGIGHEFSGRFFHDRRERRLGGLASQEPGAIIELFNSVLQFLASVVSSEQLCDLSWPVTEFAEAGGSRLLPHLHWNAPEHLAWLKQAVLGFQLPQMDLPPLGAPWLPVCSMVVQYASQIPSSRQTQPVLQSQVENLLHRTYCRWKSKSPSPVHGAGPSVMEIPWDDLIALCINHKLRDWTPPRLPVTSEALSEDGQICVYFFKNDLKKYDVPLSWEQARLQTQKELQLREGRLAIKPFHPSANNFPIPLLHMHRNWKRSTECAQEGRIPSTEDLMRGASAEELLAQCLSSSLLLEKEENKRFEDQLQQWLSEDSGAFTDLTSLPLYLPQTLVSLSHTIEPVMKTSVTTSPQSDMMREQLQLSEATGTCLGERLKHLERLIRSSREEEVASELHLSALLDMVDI
UniProt Q9BTE3: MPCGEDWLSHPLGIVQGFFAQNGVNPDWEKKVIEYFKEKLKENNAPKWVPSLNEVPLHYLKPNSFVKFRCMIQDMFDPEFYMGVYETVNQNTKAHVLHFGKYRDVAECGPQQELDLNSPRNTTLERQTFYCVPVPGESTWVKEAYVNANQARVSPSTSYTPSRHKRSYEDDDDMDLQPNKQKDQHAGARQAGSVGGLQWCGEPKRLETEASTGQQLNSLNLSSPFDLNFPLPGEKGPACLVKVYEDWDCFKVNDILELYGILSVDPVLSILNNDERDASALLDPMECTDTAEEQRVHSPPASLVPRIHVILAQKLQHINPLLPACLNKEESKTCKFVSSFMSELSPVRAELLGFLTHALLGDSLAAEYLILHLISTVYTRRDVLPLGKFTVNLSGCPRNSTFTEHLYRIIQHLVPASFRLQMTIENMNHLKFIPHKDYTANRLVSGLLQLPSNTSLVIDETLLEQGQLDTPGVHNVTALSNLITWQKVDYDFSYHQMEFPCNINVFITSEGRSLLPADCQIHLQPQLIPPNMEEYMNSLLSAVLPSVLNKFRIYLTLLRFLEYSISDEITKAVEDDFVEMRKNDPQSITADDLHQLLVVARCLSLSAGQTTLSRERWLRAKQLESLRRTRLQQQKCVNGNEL
UniProt Q9GZU1, whole entry, looked up: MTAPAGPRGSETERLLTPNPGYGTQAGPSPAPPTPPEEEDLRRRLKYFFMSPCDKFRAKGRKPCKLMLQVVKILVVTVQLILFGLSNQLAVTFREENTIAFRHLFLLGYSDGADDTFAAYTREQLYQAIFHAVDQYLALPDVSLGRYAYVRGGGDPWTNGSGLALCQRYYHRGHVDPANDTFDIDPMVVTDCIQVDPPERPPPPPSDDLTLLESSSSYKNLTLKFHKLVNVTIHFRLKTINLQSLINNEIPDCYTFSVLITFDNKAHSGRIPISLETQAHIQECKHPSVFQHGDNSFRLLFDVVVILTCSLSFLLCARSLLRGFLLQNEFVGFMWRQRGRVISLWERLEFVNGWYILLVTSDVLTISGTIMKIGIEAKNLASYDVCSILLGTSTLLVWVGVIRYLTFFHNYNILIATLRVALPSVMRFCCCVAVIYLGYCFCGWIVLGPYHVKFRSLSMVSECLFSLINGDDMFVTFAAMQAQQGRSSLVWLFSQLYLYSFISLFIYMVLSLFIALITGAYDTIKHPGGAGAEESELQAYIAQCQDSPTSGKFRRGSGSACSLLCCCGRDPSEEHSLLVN
UniProt O75586: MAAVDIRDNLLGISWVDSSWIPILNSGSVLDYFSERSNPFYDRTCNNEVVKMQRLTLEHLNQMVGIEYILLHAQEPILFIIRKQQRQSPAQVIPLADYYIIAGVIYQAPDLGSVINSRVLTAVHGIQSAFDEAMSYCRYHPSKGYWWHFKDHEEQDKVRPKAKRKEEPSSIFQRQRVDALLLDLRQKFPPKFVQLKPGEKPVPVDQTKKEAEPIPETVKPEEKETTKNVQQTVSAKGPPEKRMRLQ
UniProt Q02078: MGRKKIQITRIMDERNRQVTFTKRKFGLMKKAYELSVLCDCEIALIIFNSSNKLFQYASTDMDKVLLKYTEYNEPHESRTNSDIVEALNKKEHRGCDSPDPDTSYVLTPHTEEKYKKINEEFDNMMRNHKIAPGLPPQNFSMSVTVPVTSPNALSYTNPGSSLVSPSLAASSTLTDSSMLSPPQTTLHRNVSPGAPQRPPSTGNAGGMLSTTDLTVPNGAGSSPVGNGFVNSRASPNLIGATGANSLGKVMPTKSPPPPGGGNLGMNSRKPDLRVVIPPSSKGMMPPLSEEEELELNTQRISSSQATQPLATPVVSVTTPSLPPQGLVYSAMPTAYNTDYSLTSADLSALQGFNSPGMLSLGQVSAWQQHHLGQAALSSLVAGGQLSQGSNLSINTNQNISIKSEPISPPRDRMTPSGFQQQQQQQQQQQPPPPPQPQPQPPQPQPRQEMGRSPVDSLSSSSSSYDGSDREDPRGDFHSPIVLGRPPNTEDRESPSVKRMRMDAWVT
UniProt O43934: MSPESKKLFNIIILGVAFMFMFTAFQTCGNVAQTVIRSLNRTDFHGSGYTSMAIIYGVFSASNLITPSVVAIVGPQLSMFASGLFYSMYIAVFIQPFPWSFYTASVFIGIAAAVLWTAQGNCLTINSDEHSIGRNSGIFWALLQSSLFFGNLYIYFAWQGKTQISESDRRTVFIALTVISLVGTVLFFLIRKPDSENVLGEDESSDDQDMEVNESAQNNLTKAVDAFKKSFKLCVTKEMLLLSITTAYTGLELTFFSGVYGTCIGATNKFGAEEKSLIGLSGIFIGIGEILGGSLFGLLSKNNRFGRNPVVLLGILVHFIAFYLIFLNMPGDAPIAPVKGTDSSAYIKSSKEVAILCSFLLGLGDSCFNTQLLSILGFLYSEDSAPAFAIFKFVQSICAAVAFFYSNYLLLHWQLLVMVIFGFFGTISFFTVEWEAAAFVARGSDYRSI
UniProt O43513: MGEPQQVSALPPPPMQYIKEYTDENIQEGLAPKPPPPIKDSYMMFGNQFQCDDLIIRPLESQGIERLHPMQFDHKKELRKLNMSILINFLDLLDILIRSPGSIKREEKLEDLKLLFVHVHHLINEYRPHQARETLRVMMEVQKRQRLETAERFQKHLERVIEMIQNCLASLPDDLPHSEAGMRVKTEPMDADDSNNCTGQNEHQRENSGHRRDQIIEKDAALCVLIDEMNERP

Key:
Assay in all cases: log2 fold change, soluble protein after heating vs DMSO (PISA); higher = thermal stabilisation; K562 lysate, 10 uM; active = over 0.2 and 3.5 SD of the protein, either way, in both replicates (recomputed)
ibrutinib = compound: C=CC(=O)N1CCC[C@@H](n2nc(-c3ccc(Oc4ccccc4)cc3)c3c(N)ncnc32)C1 [ibrutinib]
Method in brief: (§1)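 Quantification was by TMTpro 16plex LC-MS/MS with equalised channel sums, applied to the supernatant after 21,000xg for 90 min. Samples were crude K562 extract at 1 mg/mL protein in PBS pH 7.4 with 1 mM MgCl2, treated with 10 μM compound for 30 min, heated for 3 min across 48°C-58°C, pooled and brought to 0.5% NP-40 at 4°C. Values are log-two fold changes in thermal stability relative to solvent controls, from duplicates.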

[1] = compound: CC(=O)c1cnc2ccc(-c3cc(Cl)c(O)c(Cl)c3)nc2c1N[C@H]1CC[C@H](CN(C)C)CC1
Method in brief: as §1

ralimetinib = compound: CC(C)(C)Cn1c(N)nc2ccc(-c3[nH]c(C(C)(C)C)nc3-c3ccc(F)cc3)nc21 [ralimetinib]
Method in brief: as §1

[2] = compound: CC(C)(O)CC(=O)NCCn1ccc2ncnc(Nc3ccc(Oc4cccc(C(F)(F)F)c4)c(Cl)c3)c21
Method in brief: as §1

[3] = compound: CC(C)C1=C2N=C(C=C(N2N=C1)NCC3=CC=CC=C3)NCCCCCCN
Method in brief: as §1

[4] = compound: CC1=C(C(CC(=O)N1)C2=CC=C(C=C2)C(F)(F)F)C(=O)NC3=C(C=C4C(=C3)C=NN4)F
Method in brief: as §1

[5] = compound: CC1=C(C2=C(C=C1)C(=O)C3=CC=CC=C3N2CCCN)C
Method in brief: as §1

[6] = compound: CC1=C(C=C(C=C1)NC(=O)C2=CC(=CC=C2)C(C)(C)C#N)NC3=CC4=C(C=C3)N=CN(C4=O)C
Method in brief: as §1

[7] = compound: CC1=C(C=C(C=C1)NC(=O)C2=CC(=CC=C2)N(C)C)NC(=O)C3=CC=C(C=C3)O
Method in brief: as §1

[8] = compound: CC1=CC=C(C=C1)SC2=C3C=C(SC3=CN=C2)C(=O)N
Method in brief: as §1

[9] = compound: CCCS(=O)(=O)Nc1ccc(F)c(C(=O)c2c[nH]c3ncc(Cl)cc23)c1F
Method in brief: as §1

barasertib = compound: CCN(CCCOc1ccc2c(Nc3cc(CC(=O)Nc4cccc(F)c4)[nH]n3)ncnc2c1)CCOP(=O)(O)O [barasertib]
Method in brief: as §1

volasertib = compound: CC[C@@H]1C(=O)N(C)c2cnc(Nc3ccc(C(=O)N[C@H]4CC[C@H](N5CCN(CC6CC6)CC5)CC4)cc3OC)nc2N1C(C)C [volasertib]
Method in brief: as §1

[10] = compound: CCn1c(C(=O)N(C2CC2)C2CC2)cc2c3c(ncn3C)c(Nc3cc(C)n(C)n3)nc21
Method in brief: as §1

[11] = compound: CCn1cc(-c2ccnc3[nH]c(-c4cccc(CN(C)C)c4)cc23)c(-c2ccc(NC(=O)N(C)C)cc2)n1
Method in brief: as §1

[12] = compound: CN1CCC(CNc2ccc3ncc(-c4cccc(OC(F)(F)F)c4)n3n2)CC1
Method in brief: as §1

saracatinib = compound: CN1CCN(CCOc2cc(OC3CCOCC3)c3c(Nc4c(Cl)ccc5c4OCO5)ncnc3c2)CC1 [saracatinib]
Method in brief: as §1

sotrastaurin = compound: CN1CCN(c2nc(C3=C(c4c[nH]c5ccccc45)C(=O)NC3=O)c3ccccc3n2)CC1 [sotrastaurin]
Method in brief: as §1

vemurafenib = compound: CCCS(=O)(=O)Nc1ccc(F)c(C(=O)c2c[nH]c3ncc(-c4ccc(Cl)cc4)cc23)c1F [vemurafenib]
Method in brief: as §1

[13] = compound: CC[C@@H]1C(=O)N(C)c2cnc(Nc3ccc(C(=O)NC4CCN(C)CC4)cc3OC)nc2N1C1CCCC1
Method in brief: as §1

Measured: log2 fold change

MCUB (UniProt Q9NWR8)
inactive: ibrutinib 0.127 | [1] 0.013 | ralimetinib 0.054 | [2] 0.045 | [3] -0.063 | [4] 0.039 | [5] -0.219 | [7] 0.04 | [8] 0.204 | [9] -0.175 | barasertib 0.156 | volasertib -0.041 | [10] -0.222 | [11] 0 | [12] -0.054 | saracatinib -0.096 | sotrastaurin -0.008
active: [6] 0.443

MCFD2 (UniProt Q8NI22)
inactive: ibrutinib 0.073 | [1] -0.043 | ralimetinib -0.054 | [2] -0.035 | [3] 0.039 | [4] 0.077 | [5] 0.049 | [6] 0.101 | [7] 0.041 | [8] 0.123 | vemurafenib 0.002 | [9] -0.054 | barasertib 0.371 | [13] 0.037 | volasertib 0.062 | [10] -0.024 | [11] -0.278 | [12] -0.241 | saracatinib 0.017 | sotrastaurin 0

MCM10 (UniProt Q7L590)
inactive: ibrutinib 0.101 | [1] 0.04 | ralimetinib 0.005 | [2] -0.008 | [3] 0.141 | [4] 0.012 | [5] -0.049 | [6] 0.079 | [7] -0.018 | [8] -0.06 | vemurafenib 0.107 | [9] -0.02 | barasertib 0.022 | volasertib 0.025 | [10] 0.012 | [11] 0.101 | [12] -0.02 | saracatinib 0.001 | sotrastaurin 0.021

Two records picked at random from those above:
MCM10 (UniProt Q7L590)
inactive: ibrutinib 0.101 | [1] 0.04 | ralimetinib 0.005 | [2] -0.008 | [3] 0.141 | [4] 0.012 | [5] -0.049 | [6] 0.079 | [7] -0.018 | [8] -0.06 | vemurafenib 0.107 | [9] -0.02 | barasertib 0.022 | volasertib 0.025 | [10] 0.012 | [11] 0.101 | [12] -0.02 | saracatinib 0.001 | sotrastaurin 0.021

MCUB (UniProt Q9NWR8)
inactive: ibrutinib 0.127 | [1] 0.013 | ralimetinib 0.054 | [2] 0.045 | [3] -0.063 | [4] 0.039 | [5] -0.219 | [7] 0.04 | [8] 0.204 | [9] -0.175 | barasertib 0.156 | volasertib -0.041 | [10] -0.222 | [11] 0 | [12] -0.054 | saracatinib -0.096 | sotrastaurin -0.008
active: [6] 0.443

(continued)

METTL5 (UniProt H0YFV5)
inactive: ibrutinib -0.083 | [1] 0.032 | [3] 0.001 | [6] 0.306 | [8] -0.172 | [9] 0.015 | barasertib 0.005 | volasertib -0.015 | sotrastaurin -0.026

MCM3AP (UniProt O60318)
inactive: ibrutinib 0.137 | [1] -0.029 | ralimetinib 0.016 | [2] -0.01 | [3] 0.004 | [4] -0.058 | [5] -0.144 | [7] -0.103 | [8] 0.069 | vemurafenib 0.054 | [9] 0.011 | barasertib 0.263 | volasertib 0.027 | [10] 0.047 | [11] -0.024 | [12] -0.246 | saracatinib 0.054

MCMBP isoform 2 (UniProt Q9BTE3)
inactive: ibrutinib -0.032 | [1] -0.055 | ralimetinib -0.138 | [2] 0.068 | [3] 0.114 | [4] -0.111 | [5] -0.05 | [6] 0.063 | [7] 0.12 | [8] 0.005 | vemurafenib -0.039 | [9] 0.081 | barasertib -0.096 | [13] 0.059 | volasertib -0.004 | [10] 0.047 | saracatinib -0.036 | sotrastaurin -0.015

MCOLN1 (UniProt Q9GZU1)
inactive: ibrutinib 0.018 | [1] 0.036 | ralimetinib 0.065 | [2] 0.071 | [3] -0.252 | [4] 0.213 | [5] 0.101 | [6] 0.01 | [7] -0.045 | [8] -0.018 | vemurafenib 0.038 | [9] 0.017 | barasertib -0.064 | volasertib 0.051 | [10] 0.044 | [11] 0.022 | [12] 0.192 | saracatinib 0.078 | sotrastaurin -0.013

MED6 (UniProt O75586)
inactive: ibrutinib 0.043 | [1] 0.064 | ralimetinib -0.167 | [2] 0.02 | [5] -0.02 | [6] 0.081 | [7] -0.024 | [8] -0.153 | vemurafenib 0.029 | [9] -0.036 | barasertib -0.103 | [13] -0.022 | volasertib 0.021 | [10] 0.048 | [11] -0.03 | [12] 0.031 | saracatinib -0.031 | sotrastaurin 0

MEF2A isoform 2 (UniProt Q02078)
inactive: ibrutinib -0.078 | [1] -0.088 | ralimetinib -0.031 | [2] -0.023 | [3] 0.03 | [4] -0.062 | [6] 0.023 | [7] 0.064 | [8] 0.029 | vemurafenib 0.065 | [9] 0.07 | barasertib -0.013 | volasertib 0.017 | [10] -0.002 | [11] -0.071 | [12] 0.024 | sotrastaurin 0.01

MFSD11 (UniProt O43934)
inactive: ibrutinib -0.029 | [1] -0.016 | ralimetinib 0.044 | [2] -0.087 | [3] -0.078 | [7] -0.051 | [8] -0.033 | [9] 0.064 | barasertib -0.016 | volasertib -0.033 | [10] -0.051 | [11] -0.095 | [12] 0.084

MED7 (UniProt O43513)
inactive: ibrutinib 0.071 | [1] 0.012 | ralimetinib 0.163 | [2] -0.057 | [3] -0.066 | [4] -0.054 | [5] 0.032 | [6] -0.043 | [7] -0.027 | [8] -0.037 | vemurafenib 0.153 | [9] -0.018 | barasertib -0.083 | [13] -0.017 | volasertib -0.025 | [10] 0.075 | [11] 0.035 | [12] 0.062 | saracatinib -0.025 | sotrastaurin 0.036
